Some of these results come from one statement about several compounds together.
Assay: Determination of the in-vitro SPF on PMMA plates (Labsphere UV-200S, Colipa method)
Type: physicochemical
Conditions: sunscreen product, cosmetic or pharmaceutical preparation or homecare product; amount not stated
Experimental: Determination of the in-vitro SPFs and UVA-PF
The SPF boosting and UVA-PF boosting test is carried out as in-vitro determination of SPFs.
Principle: The formulation to be tested (emulsion, solution) is weighed on PMMA plates with the help of an analytical balance. The formulation if distributed and incorporated on the plate using a method corresponding to the formulation. The thus prepared plates are then measured on a Labsphere device and the results are calculated as SPF with a suitable software.
PMMA plates (Polymethylmethacrylate), measuring 3 cm×8.5 cm (WVVW5 plates based on […] “Determination of UVA photoprotection in vitro” with 5μ roughness by Schonberg GmbH & Co. AG) are used to perform an SPF measurement.
A reference sample is obtained by distributing 25 to 28 mg glycerin (99.5%) with the index finger on the roughened side of the PMMA plate. The glycerin film must be very thin and uniform. Subsequently, this plate is stored for at least 2 hours.
The reference plate is measured with the following transmission values:
The sample to be measured should be homogeneously mixed with a spatula before application. 1.2 mg/cm2 of sample is evenly distributed in several rows of dots on the PMMA plate. In order to minimise the evaporation of the sample during weighing, this process must be carried out quickly. The sample is then evenly distributed by hand with a finger previously saturated with the sample material. The distribution takes place in two phases: • Phase 1: Fast and uniform distribution with a slight pressure until the emulsion is broken. • Phase 2: The sample is massaged into the rough surface with strong pressure and the process should last 30 seconds. In this context under strong pressure means that when massaged on a scale, this indicates at least […].
Sun oils: The product quantity is generally 1.3 mg/cm^2. For strongly spreading oils, less product is applied, as the amount of oil cannot be “absorbed” from the plate. Then the amount of application should be reduced to 1.0-0.75 mg/cm^2. Application method here is also the 30 s fast/light and 30 s strong method. • Sun sprays: The “30/30 method” applies here (especially for thicker sprays). • For very liquid sprays (similar to water): • Fast and uniform distribution with a slight pressure, until the emulsion “breaks”. • The process should take 45 s.
The finished sample plates are stored dust-free and measured at the earliest after 15 minutes.
The samples are measured using the UV-200S device, using the specified Colipa method. The Labsphere user manual also applies.
A new “Study” is opened via File and then the “Colipa Guideline 2011” method is selected under the heading “Study”. In the new window “Colipa Method Options” the number of plates (3 plates), the measuring points per plate (5 measuring points) and the in vivo SPF and, if necessary, the irradiance intensity of the external irradiance device (Solar Simulator Irradiance) entered. • The irradiance set on the external device is 765 W/m2 as standard. The complete naming of the sample is done via Study”, “Study Information”.
At the beginning of the measurement, a blank value of the glycerin reference sample is measured (“scan blank plate”). In order to determine the SPF of a sample, a total of 15 measuring points (3 plates of 5 measuring points) are then created (“Scan Location”).
• After the first measurement run, the device calculates an irradiation dose (Irradiation Dose/J/cm2) and the duration (exposure time) for each plate. The plates are irradiated in the external irradiation device (irradiation duration=average value of the 3 plates).
The calculation of irradiation dose and exposure time is based on the irradiance (765 W/m^2) set on the external device. […]

Structure (SMILES) | increase in SPF compared to the product without the mycosporine-like amino acid compound
CCCCCCCCOc1ccc(/N=C2/C=C(NCC(=O)O)CC(C)(C)C2)cc1 [MAA-3, 5,5-dimethyl-3-((4-(octyloxy)phenyl)imino) cyclohex-1-en-1-yl-glycine] | at least 10%
CCOC(=O)CNC1=C/C(=N/c2ccc(N3CCOCC3)cc2)CC(C)(C)C1 [MAA-16, ethyl 2-((5,5-dimethyl-3-((4-morpholinophenyl)imino)cyclohex-1-en-1-yl)amino)acetate] | at least 10%
CC1(C)CC(NCC(=O)O)=C/C(=N/c2ccc(C(=O)c3ccccc3)cc2)C1 [MAA-5, 3-((4-benzoylphenyl)imino)-5,5-dimethylcyclohex-1-en-1-yl-glycine] | at least 10%
O=C(O)CNC1=C/C(=N/c2ccc(S(=O)(=O)O)cc2)CCC1 [MAA-29, 2-[(3-(4-sulfophenyl)iminocyclohexen-1-yl)amino]acetic acid] | at least 10%
CC1(C)CC(NCC(=O)O)=C/C(=N/c2ccc(N3CCOCC3)cc2)C1 [MAA-17, 5,5-dimethyl-3-((4-morpholinophenyl)imino) cyclohex-1-en-1-yl-glycine] | at least 10%
CCOC(=O)CNC1=C/C(=N/c2ccc(C(=O)c3ccccc3)cc2)CC(C)(C)C1 [MAA-4, ethyl 2-((3-((4-benzoylphenyl)imino)-5,5-dimethylcyclohex-1-en-1-yl)amino)acetate] | at least 10%
CC1(C)CC(NCC(N)=O)=C/C(=N/c2ccccc2)C1 [MAA-32, 2-[(5,5-dimethyl-3-phenylimino-cyclohexen-1-yl)amino]acetamide] | at least 10%
CCOC(=O)CNC1=C/C(=N/c2ccc(/N=N/c3ccccc3)cc2)CC(C)(C)C1 [MAA-8, ethyl 2-((5,5-dimethyl-3-((4-(phenyldiazenyl)phenyl)imino)cyclohex-1-en-1-yl)amino)acetate] | at least 10%
CC1=C(NCC(N)=O)CCC/C1=N\c1ccccc1 [MAA-35, 2-((2-methyl-3-(phenylimino)cyclohex-1-en-1-yl)amino)acetamide] | at least 10%
CC1=C(NCC(=O)O)CC(C)(C)C/C1=N\c1ccccc1 [MAA-22, 2,5,5-trimethyl-3-(phenylimino)cyclohex-1-en-1-yl-glycine] | at least 10%
COc1ccc(/N=C2/C=C(NCC(N)=O)CCC2)cc1OC [MAA-37, 2-[(3-(3,4-dimethoxyphenyl)iminocyclohexen-1-yl)amino]acetamide] | at least 10%
COc1ccc(/N=C2\CC(C)(C)CC3=C2SCC(C(=O)O)N3)cc1OC (stereo not shown) [MAA-13, 8-((3,4-dimethoyxphenyl)imino)-6,6-dimethyl-3,4,5,6,7,8-hexahydro-2-H-benzol[b][1,4]thiazine-3-carboxylic acid] | at least 10%
NC(=O)CNC1=C/C(=N/c2ccccc2)CCC1 [MAA-33, 2-[(3-phenyliminocyclohexen-1-yl)amino]acetamide] | at least 10%
CCCCCCCCOc1ccc(/N=C2/C=C(NCC(=O)OCC)CC(C)(C)C2)cc1 [MAA-2] | at least 10%
COc1ccc(/N=C2/C=C(NCC(N)=O)CC(C)(C)C2)cc1OC [MAA-36, 2-((3-((3,4-dimethoxyphenyl)imino)-5,5-dimethylcyclohex-1-en-1-yl)amino)acetamide] | at least 10%
COc1ccc(/N=C2\CC(C)(C)CC(NCC(N)=O)=C2C)cc1OC [MAA-38, 2-((3-((3,4-dimethoxyphenyl)imino)-2,5,5-trimethylcyclohex-1-en-1-yl)amino)acetamide] | at least 10%

Structure (SMILES) | increase in SPF compared to the product without the mycosporine-like amino acid compound
COc1ccc(/N=C2\CC(C)(C)CC(NCC(=O)O)=C2C)cc1OC [MAA-26, 3-((3,4-dimethoxyphenyl)imino)-2,5,5-trimethylcyclohex-1-en-1-yl-glycine] | at least 10%
O=C(O)CNC1=C/C(=N/c2ccccc2)CCC1 [MAA-21, 2-[(3-phenyliminocyclohexen-1-yl)amino]acetic acid] | at least 10%
COc1ccc(/N=C2/C=C(NCC(=O)O)CCC2)cc1OC [MAA-25, 3-((3,4-dimethoxyphenyl)imino) cyclohex-1-en-1-yl-glycine] | at least 10%
COc1ccc(/N=C2/C=C(NCC(=O)O)CC(C)(C)C2)cc1OC [MAA-24, 3-((3,4-dimethoxyphenyl)imino)-5,5-dimethylcyclohex-1-en-1-yl-glycine] | at least 10%
CC1(C)CC(NCC(=O)O)=C/C(=N/c2ccc(S(=O)(=O)O)cc2)C1 [MAA-28, 2-[(5,5-dimethyl-3-(4-sulfophenyl)imino-cyclohexen-1-yl)amino]acetic acid] | at least 10%
CC1=C(NCC(=O)O)CCC/C1=N\c1ccccc1 [MAA-23, 2-[(2-methyl-3-phenylimino-cyclohexen-1-yl)amino]acetic acid] | at least 10%
COc1ccc(/N=C2\CC(C)(C)CC3=C2SCC(C(=O)NO)N3)cc1OC (stereo not shown) [MAA-B] | at least 10%
CCOC(=O)C1CSC2=C(CC(C)(C)C/C2=N\c2ccc(OC)c(OC)c2)N1 (stereo not shown) [MAA-12, ethyl 8-((3,4-dimethoyxphenyl)imino)-6,6-dimethyl-3,4,5,6,7,8-hexahydro-2-H-benzol[b][1,4]thiazine-3-carboxylate] | at least 10%
CC1=C(NCC(N)=O)CC(C)(C)C/C1=N\c1ccccc1 [MAA-34, 2-((2,5,5-trimethyl-3-(phenylimino)cyclohex-1-en-1-yl)amino)acetamide] | at least 10%
CC1=C(NCC(=O)O)CC(C)(C)C/C1=N\c1ccc(S(=O)(=O)O)cc1 [MAA-30, 2,5,5-trimethyl-3-((4-sulfophenyl)imino)cyclohex-1-en-1-yl-glycine] | at least 10%
COc1ccc(/N=C2\CCCC(NCC(N)=O)=C2C)cc1OC [MAA-39, 2-((3-((3,4-dimethoxyphenyl)imino)-2-methylcyclohex-1-en-1-yl)amino)acetamide] | at least 10%
CC1=C(NCC(=O)O)CCC/C1=N\c1ccc(S(=O)(=O)O)cc1 [MAA-31, 2-methyl-3-((4-sulfophenyl)imino)cyclohex-1-en-1-yl-glycine] | at least 10%
CC1(C)CC(NCC(=O)O)=C/C(=N/c2ccccc2)C1 [MAA-20, 2-[(5,5-dimethyl-3-phenylimino-cyclohexen-1-yl)amino]acetic acid] | at least 10%
CC1(C)CC(NCC(=O)O)=C/C(=N/c2ccc(F)cc2)C1 [MAA-11, 3-((4-fluorophenyl)imino)-5,5-dimethylcyclohex-1-en-1-yl-glycine] | at least 10%
CCOC(=O)CNC1=C/C(=N/c2ccc(OC)c(OC)c2)CC(C)(C)C1 [MAA-14, ethyl 2-((3-((3,4-dimethoxyphenyl)imino)-5,5-dimethylcyclohex-1-en-1-yl)amino)acetate] | at least 10%
